Tested on: HepaRG cells
Settings: HepaRG 24 h

CCCCc1oc2ccccc2c1C(=O)c1cc(I)c(OCCN(CC)CC)c(I)c1 [amiodarone]
Concentration at which increase of number of apoptotic cells (nuclear morphology) exceeded the threshold: 25 µM

From PMC10182956 (Archives of Toxicology, 2023)
